These are yes or no findings as the source states them, for the method shown. In cells and extracts the contact can be indirect. Here binding means that the protein was enriched with, or labelled near, the bait; the list need not be complete. For some of these results: No binding means not detected with the bait.

In article PMC3579733 one finds binding data, which are given here for 6 molecules.

For test [1], the target named is T1, CheA (Halobacterium salinarum R1 (DSM 671)) (UniProt B0R4J9).
T1 sequence: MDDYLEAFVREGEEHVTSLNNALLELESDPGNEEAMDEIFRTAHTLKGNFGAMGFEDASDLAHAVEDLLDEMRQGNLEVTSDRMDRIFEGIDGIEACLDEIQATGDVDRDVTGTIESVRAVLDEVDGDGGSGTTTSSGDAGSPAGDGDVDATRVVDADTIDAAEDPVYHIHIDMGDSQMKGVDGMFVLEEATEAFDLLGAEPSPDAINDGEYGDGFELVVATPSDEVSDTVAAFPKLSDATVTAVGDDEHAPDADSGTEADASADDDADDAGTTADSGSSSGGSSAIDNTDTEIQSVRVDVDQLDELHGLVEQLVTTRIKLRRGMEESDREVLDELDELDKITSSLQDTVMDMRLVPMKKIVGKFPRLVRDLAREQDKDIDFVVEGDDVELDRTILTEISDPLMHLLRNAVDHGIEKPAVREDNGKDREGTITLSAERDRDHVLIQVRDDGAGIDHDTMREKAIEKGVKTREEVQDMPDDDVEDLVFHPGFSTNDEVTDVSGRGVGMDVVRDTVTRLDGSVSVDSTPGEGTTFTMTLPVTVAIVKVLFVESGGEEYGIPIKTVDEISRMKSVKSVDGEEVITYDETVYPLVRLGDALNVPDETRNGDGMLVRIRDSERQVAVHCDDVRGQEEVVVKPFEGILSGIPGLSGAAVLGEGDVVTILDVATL
The experiment in a line: affinity purification with mass spectrometry; one-step bait fishing: lysates of the bait-CBD strain (13C6-leucine) and of the bait-control strain without CBD (12C6-leucine) mixed, one cellulose column, CFE buffer (3 M KCl, 1 M NaCl, 400 mM NH4Cl, 40 mM MgCl2, 10 mM Tris/HCl pH 7.5), washes with 0.5% NP40, room temperature; SILAC, association score > 7 counts as interaction.

The target in test [2] is T2, CheY (Halobacterium salinarum R1 (DSM 671)) (UniProt B0R4K1).
T2 sequence: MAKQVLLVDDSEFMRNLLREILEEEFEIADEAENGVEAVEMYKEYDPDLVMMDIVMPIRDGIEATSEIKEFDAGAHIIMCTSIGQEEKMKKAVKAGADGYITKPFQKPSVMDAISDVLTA
The test can be described thus: affinity purification with mass spectrometry; one-step and two-step bait fishing taken together (final data set; both methods applied to all baits); the place does not tell which of the two gave the result.

In test [3] the target is T3, CheW2 (Halobacterium salinarum R1 (DSM 671)) (UniProt Q9HQY8).
T3 sequence: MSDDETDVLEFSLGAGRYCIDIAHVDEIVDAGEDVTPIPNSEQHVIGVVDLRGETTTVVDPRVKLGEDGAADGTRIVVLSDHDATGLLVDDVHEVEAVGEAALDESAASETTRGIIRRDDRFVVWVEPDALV
Described as above.

In test [4] the target is T4, CheW1 (Halobacterium salinarum R1 (DSM 671)) (UniProt Q9HQW5).
T4 sequence: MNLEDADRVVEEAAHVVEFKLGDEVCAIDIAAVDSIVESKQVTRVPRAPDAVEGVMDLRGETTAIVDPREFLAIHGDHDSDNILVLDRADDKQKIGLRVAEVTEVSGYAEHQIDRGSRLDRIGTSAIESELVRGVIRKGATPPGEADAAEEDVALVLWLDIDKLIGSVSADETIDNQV
Described as above.

For test [5], the target named is T3, CheW2 (Halobacterium salinarum R1 (DSM 671)). The experiment in a line: affinity purification with mass spectrometry; two-step bait fishing: bait-CBD bound to a cellulose column and stringently washed (CFE + 1% NP40 + 20% ethylene glycol), then incubated with lysate of wild type cells (12C6-leucine); plain CBD column with 13C6-leucine lysate as control; SILAC, association score > 7 counts as interaction; only the target purified.

The target is the same in test [6]. The experiment in a line: affinity purification with mass spectrometry; comparative two-step bait fishing: CheW1 on one cellulose column with light (12C) lysate, CheW2 on a second column with heavy (13C) lysate, the second CheW as control instead of plain CBD; only the target purified.
Test [7] addresses T1, CheA (Halobacterium salinarum R1 (DSM 671)). The experiment in a line: affinity purification with mass spectrometry; one-step and two-step bait fishing taken together (final data set; both methods applied to all baits); the place does not tell which of the two gave the result.
Test [8] concerns the target CheD (Halobacterium salinarum R1 (DSM 671)). The description is as above.
For test [9], the target named is OE4643R (Halobacterium salinarum R1 (DSM 671)). The description is as above.
The target of test [10] is T5, CheB (Halobacterium salinarum R1 (DSM 671)) (UniProt B0R4K0).
T5 sequence: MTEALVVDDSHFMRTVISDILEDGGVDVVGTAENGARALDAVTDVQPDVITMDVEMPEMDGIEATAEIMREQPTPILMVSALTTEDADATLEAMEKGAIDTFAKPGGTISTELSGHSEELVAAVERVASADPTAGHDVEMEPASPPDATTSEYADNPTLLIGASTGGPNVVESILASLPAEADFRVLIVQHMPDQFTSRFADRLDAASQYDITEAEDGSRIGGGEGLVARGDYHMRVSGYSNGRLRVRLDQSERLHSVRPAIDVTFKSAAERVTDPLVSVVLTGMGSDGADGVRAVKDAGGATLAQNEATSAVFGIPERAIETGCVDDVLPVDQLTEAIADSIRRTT
The description is as above.

The target of test [11] is T6, CheF1 (Halobacterium salinarum R1 (DSM 671)) (UniProt B0R4J3).
T6 sequence: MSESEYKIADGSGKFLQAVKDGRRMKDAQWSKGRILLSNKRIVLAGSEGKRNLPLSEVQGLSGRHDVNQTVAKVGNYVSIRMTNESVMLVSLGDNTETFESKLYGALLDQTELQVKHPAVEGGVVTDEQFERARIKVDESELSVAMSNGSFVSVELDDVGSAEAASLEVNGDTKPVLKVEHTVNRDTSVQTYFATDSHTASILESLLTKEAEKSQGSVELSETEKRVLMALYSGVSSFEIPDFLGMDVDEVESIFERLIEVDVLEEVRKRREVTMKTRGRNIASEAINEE
The test is described as above.

Test [12] addresses T7, CheF2 (Halobacterium salinarum R1 (DSM 671)) (UniProt B0R4J4).
T7 sequence: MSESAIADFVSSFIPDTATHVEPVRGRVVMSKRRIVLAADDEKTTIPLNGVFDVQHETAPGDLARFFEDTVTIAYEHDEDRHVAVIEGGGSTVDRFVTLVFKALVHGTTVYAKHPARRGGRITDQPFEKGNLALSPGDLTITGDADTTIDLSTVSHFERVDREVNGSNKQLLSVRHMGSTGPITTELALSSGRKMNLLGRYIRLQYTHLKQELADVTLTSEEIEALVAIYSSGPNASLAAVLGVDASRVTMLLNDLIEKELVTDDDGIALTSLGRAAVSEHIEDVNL
The test is described as above.

Regarding Htr17 (receptor), the binding entry in [1] is “binds”; in test [2] it was “binds”; in test [3], “no binding”; in test [4] it was “no binding”.

With Htr16 (receptor), the binding entry is “binds” in test [1], “binds” in [2], “no binding” in test [3] and “no binding” in test [4].

B1: Htr13 (receptor, UniProt B0R4N9 1-423)
chain: MTGPDNSLTDPSASPSTPVASLRPTAEQLLPQQRDQLHAFIERVLADHPDHIVDCCVEYYTNTLPNGTAAYGDLLALLAATSADADAFTAAVTAIQSPLLSGDGPTDGPPAQESVTAHARVVAEDMSALRGRVAADDATATGSEATADEAAAVAELIERAREMNQNMEEIDRLAAQQSDNTDNLKAEISDISSAIEQIAASATEVNDRSDEAQSLATDGYERAVAVVEQVEAIHDGVTEVRHQTATLQDHTEAIDDIVEVINDIADQTNLLALNASIEAARADAGGEGFAVVADEVKSLAEESKTQAEEIEERVENIQVETRNAADTLVELETETEDSLEASTSSLDTFEEIKDLVTGVSTSLDEIKSGTERQTESSEELTMMIDEAARKADTISDEVASMADANHAQLQKLEAYQSESDQSR
B1: the binding entry in test [5] is “binds”; in [6] it was “binds”; in test [2] it was “no binding”; in test [7], “no binding”; in test [8], “no binding”; in test [4], “binds”. For the same molecule, the binding result in test [9] is “no binding”.

B2: CheC2 (protein, UniProt Q9HPJ6 1-196)
chain: MSATIELRAFRDINELADASAATVRGHIEQLAGVEAAVSVTGLTFLAPEDLGQHLGTAQTYAASVPLESRPHGVFCLNLGDTGGAALAEQMTGTEIAGTLSNMQESALKELMNILASGFLDGIANSLGIEIIHGPPTVYHDSGPVIADTLRPSGTEQPLLIMVNLGVELPALTETPVTFYLIPSADEFASLLNDLS
Regarding B2, the binding result in [10] is “no binding”; in test [11] it was “binds”; in [12], “binds”; in test [8], “binds”.

B3: Car (receptor, UniProt B0R9Z1 1-452)
chain: MDPASSDMGGEATGEHLADELCEAYLGDNEDDGGDELQRLSRERDFWKHMFNQLVAEYPEGILITAADGTVTHWNERFSDHMKMARSDALGEDASDVFSTAEESETLPEAVVRTGDTVEEEEPHDVPTDSLCQYHGVPLRAPTGDVVGSFGVVPDISEKVKNQRELHDLHETVSSNVGEHLSELSESIDEVGSFAEETEAFAGEEIERMEGVADEVSNQSATIEEIASSAEEVSQASQRAQDRATEGEQTAETAIDRMGAVQESAERVNDTIDGLTSQADEMSEIIDAINDIADQTNMLALNASIEAARAGEKGEGFAVVADEVKSLAEESQERADEIEQMIVEMVETTDQTADRIGQTTTEIEEAITAVRETLDSLQEIRKAVDETATGVKEVAGATDDHAASTEQVAATTDEAVDKLTELEDRLDNLSQIASEQHDRVAEIEDMVDELVE
On to B3, for which the binding entry in [5] was “binds”; in [6], “binds”; in test [2], “no binding”; in test [7] it was “no binding”; in [8], “no binding”; in test [4], “no binding”. Besides, the binding result in test [9] was “no binding”.

B4: Htr18 (receptor, UniProt B0R474 1-816)
chain: MALGTYVPTAIRTSLLRKAAVVIVTIMLVLVGVGVFTTQAVSTQVTEQRDTELLTSTEQEAEALEEWIGRQRSATQYLSQDNAIQSAPQADKSEVLSTRISGLTETAAALHYVNLSTDTIRASTDAAVEGDTYTSYSIPWRGEGLSFYGGGDVITSSVFNYRGTPVMAFASKQPGSDNAVFVFHSVETRGEAFSRNIDGSYTQVVDIEGTVQIAADESAISSAYGAGRDAPVIATGLTTNSGIETRDGLLVGHAKVEGTDWVLLKHAPTSNAYALEGDVQRNIVVLIVTAVAGLGALVLVIGRDALTALTDMSDRAEAIAAGDIDTAIEETTRIDEVGDLRRSFRDIQEYLQTVAGQADALAEQDFDADALDKSVPGRLGESLETMHWDLETAIADLEDAQETAEQSRKEAEQSREEAEALAAALESQAQDIRETVEHAADGDLTQRLETDTDHESMAAIATALNSLLEELEGTIHRIQRFSKDVAESSDHITTSAEEVKRASGQVSESVQEMSADARQQNGIVQDVSDEMTDLSATIEEIASSSDEVAAKSNDAVSVGQSGRARSQDAIEEMNAVDEQAKRTIAEMEALDDEMTEIGEIVTLIDDIAEQTSMLALNASIEAARAGEAGEGFAVVADEIKSLSKETTEATQEIESLIADVQDSTTDAVTDMQEMGDRLSEGKSTVTDTVETIDTIVERIEEANGGVQTINTATDEQATTTEEVVTMVDEVGSISDDTTARAEDAAAAAEEQTASLTEVTNRIQDLSDQSTDLYELLSDFTVREDHAVADGGAENTTGAFVRSASTDHSRDATHHDT
Take B4: the binding entry in test [2] is “binds”; in [3], “no binding”; in test [8], “no binding”; in test [4], “no binding”; in test [9], “no binding”.
